Test results as given in the supplement of paper PMC12819154, “High-throughput peptide-centric local stability assay extends protein–ligand identification to membrane proteins, tissues and bacteria” (Nature Structural & Molecular Biology, 2025).
The other results are listed elsewhere or left out. Most values lie at the level of the controls, where differences are scatter.

Amino acid sequences for entries named in this document (tags omitted). A change or cut given only in a name is not applied to a line headed by its entry.
UniProt O88892: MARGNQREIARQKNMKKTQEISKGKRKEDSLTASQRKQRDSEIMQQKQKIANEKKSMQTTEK
UniProt O88327: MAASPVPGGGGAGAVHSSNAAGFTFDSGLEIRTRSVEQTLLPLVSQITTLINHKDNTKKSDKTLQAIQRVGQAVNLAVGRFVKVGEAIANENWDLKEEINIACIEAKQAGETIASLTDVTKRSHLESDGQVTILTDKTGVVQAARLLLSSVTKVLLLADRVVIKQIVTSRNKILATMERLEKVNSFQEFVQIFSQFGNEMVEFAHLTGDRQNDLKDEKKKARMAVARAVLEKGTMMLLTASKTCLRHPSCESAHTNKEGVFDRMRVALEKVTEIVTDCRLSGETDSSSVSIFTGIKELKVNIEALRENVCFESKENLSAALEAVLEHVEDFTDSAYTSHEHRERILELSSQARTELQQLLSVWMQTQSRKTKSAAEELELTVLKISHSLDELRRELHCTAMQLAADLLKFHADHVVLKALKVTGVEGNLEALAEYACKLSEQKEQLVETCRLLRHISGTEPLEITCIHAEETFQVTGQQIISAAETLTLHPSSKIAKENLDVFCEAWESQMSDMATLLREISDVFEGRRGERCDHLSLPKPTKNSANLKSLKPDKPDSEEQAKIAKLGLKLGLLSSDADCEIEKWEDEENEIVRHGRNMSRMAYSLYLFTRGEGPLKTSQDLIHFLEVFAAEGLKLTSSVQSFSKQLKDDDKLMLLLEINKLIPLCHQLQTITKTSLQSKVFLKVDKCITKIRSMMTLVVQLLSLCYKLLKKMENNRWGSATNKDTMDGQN
UniProt O54784: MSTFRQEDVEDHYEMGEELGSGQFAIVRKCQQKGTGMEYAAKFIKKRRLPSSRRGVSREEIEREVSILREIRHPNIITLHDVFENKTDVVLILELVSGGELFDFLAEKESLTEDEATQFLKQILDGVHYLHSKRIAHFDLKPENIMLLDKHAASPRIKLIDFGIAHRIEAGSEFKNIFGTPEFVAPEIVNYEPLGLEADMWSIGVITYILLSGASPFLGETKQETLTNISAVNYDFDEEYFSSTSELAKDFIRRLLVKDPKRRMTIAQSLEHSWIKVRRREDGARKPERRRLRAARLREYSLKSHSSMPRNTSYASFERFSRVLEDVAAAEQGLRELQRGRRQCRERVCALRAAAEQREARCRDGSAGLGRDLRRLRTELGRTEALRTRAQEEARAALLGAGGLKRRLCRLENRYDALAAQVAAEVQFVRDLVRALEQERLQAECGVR
UniProt O88822: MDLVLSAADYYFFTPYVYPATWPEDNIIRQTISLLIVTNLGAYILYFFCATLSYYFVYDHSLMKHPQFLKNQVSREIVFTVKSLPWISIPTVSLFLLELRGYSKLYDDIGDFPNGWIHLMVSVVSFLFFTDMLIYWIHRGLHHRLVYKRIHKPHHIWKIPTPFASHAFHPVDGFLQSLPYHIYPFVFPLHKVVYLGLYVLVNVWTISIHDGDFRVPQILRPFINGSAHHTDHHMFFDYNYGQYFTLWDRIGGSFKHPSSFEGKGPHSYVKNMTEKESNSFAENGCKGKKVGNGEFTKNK
UniProt O35973, whole entry: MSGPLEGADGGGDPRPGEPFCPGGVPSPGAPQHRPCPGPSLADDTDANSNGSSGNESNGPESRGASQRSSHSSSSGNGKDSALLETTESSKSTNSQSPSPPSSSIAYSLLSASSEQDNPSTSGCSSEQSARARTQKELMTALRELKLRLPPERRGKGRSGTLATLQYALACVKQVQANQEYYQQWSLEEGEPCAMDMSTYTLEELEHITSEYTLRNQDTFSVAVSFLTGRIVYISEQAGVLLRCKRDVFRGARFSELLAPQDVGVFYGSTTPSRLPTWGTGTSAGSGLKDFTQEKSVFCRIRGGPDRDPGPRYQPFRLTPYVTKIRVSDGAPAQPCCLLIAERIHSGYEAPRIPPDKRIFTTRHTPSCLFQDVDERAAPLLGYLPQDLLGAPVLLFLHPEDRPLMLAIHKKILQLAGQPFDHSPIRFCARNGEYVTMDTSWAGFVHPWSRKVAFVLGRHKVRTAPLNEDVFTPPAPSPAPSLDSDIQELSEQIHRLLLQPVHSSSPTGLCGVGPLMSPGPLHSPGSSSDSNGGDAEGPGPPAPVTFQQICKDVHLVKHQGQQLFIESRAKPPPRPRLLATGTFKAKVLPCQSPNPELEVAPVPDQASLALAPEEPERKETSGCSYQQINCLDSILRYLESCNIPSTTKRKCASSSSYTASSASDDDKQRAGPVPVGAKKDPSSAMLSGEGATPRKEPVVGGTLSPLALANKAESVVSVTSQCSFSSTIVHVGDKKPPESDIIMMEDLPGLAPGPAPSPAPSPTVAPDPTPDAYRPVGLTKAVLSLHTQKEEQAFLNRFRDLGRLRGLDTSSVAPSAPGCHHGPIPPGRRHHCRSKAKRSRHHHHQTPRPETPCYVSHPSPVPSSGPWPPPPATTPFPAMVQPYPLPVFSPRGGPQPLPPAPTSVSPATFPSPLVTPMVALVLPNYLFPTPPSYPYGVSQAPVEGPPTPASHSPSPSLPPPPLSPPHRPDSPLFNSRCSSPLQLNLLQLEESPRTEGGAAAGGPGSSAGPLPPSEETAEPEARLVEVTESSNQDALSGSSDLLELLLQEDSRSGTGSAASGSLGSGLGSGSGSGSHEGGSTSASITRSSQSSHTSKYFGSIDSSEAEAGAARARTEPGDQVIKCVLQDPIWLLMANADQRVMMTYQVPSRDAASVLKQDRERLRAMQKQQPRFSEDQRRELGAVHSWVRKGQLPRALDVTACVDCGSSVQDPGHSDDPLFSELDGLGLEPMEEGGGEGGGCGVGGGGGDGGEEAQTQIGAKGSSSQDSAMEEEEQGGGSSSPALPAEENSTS
UniProt O35732: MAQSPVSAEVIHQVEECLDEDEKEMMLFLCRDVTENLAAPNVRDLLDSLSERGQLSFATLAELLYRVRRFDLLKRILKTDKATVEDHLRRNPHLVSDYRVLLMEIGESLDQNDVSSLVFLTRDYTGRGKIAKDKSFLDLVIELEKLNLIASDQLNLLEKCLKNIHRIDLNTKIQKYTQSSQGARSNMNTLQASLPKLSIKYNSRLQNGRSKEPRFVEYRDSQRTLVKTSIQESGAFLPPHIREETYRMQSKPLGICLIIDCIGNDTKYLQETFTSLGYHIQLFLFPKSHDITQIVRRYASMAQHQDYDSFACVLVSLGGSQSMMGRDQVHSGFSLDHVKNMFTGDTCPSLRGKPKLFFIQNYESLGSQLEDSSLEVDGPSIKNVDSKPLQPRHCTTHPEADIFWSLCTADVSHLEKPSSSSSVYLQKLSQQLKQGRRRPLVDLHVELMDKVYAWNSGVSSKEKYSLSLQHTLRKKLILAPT
UniProt O54992: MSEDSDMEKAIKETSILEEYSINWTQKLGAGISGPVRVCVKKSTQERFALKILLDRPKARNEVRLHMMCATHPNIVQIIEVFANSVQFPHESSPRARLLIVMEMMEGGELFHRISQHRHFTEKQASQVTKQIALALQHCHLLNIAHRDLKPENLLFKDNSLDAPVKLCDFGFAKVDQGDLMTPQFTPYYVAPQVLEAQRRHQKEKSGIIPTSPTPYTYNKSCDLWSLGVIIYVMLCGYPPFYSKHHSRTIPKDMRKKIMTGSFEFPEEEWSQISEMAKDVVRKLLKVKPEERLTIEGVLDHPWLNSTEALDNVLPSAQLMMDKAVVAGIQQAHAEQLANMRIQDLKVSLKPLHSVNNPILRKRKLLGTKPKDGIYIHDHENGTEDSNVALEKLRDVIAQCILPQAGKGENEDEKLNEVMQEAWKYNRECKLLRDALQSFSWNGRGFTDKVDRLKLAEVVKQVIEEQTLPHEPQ
UniProt O54833, whole entry: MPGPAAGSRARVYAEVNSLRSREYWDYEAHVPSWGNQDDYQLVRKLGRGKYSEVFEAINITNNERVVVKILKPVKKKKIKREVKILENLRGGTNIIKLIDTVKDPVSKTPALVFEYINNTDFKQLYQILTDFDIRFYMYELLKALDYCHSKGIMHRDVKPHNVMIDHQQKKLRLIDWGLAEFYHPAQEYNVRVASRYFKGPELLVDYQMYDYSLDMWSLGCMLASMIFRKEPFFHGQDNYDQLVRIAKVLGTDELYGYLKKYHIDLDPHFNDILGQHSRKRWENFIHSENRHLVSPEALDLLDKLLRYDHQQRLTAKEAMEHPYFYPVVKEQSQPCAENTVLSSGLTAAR
UniProt O55128: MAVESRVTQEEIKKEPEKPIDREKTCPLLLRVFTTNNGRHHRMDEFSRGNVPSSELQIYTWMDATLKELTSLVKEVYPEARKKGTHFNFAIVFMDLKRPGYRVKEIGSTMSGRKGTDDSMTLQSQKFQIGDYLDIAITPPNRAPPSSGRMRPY
UniProt O88844, whole entry: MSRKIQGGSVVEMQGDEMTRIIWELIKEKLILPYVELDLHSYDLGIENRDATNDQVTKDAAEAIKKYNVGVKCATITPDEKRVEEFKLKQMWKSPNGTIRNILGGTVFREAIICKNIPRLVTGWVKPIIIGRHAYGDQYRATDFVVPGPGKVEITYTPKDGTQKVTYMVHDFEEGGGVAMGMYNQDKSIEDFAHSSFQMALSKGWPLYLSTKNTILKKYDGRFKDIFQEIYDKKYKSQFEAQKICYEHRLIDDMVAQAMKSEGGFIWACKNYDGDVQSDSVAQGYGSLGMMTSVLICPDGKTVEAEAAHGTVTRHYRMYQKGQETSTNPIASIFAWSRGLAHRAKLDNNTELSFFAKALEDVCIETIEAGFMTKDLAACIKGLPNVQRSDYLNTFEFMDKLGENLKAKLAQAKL
UniProt O70404: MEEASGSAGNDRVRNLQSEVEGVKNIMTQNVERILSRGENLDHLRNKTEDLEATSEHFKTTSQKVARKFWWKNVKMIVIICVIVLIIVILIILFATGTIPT
UniProt O88532: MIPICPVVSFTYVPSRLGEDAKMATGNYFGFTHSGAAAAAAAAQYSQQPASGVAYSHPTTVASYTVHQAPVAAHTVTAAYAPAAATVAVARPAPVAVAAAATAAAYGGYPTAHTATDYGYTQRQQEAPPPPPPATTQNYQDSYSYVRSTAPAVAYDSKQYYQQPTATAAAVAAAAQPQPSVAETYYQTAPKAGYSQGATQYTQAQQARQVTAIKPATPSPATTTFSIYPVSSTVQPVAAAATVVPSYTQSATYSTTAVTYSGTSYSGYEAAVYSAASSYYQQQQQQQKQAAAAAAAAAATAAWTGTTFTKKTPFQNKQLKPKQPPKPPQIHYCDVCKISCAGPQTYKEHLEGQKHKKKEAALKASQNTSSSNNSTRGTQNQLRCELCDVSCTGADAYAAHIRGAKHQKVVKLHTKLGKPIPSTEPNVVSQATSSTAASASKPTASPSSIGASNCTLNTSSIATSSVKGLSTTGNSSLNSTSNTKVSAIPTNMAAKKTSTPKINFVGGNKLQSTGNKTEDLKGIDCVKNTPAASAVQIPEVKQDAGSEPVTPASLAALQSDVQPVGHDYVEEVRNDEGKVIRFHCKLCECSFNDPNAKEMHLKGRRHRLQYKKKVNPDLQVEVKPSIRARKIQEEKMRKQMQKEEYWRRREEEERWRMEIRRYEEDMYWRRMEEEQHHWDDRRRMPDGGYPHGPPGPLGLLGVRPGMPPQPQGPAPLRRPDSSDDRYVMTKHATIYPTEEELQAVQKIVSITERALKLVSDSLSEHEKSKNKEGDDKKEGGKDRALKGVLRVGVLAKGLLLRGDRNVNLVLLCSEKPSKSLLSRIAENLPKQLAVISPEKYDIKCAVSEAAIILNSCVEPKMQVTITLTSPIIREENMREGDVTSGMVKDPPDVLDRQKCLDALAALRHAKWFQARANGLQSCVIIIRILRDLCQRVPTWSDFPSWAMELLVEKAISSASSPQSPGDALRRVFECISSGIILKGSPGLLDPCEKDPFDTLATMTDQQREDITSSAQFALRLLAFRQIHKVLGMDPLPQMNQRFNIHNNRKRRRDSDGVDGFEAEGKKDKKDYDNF
UniProt O70200: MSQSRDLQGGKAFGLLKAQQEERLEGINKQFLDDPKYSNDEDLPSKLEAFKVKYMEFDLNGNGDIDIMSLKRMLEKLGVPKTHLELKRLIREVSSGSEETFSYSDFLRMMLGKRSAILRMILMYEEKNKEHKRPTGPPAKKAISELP
UniProt O70194, whole entry: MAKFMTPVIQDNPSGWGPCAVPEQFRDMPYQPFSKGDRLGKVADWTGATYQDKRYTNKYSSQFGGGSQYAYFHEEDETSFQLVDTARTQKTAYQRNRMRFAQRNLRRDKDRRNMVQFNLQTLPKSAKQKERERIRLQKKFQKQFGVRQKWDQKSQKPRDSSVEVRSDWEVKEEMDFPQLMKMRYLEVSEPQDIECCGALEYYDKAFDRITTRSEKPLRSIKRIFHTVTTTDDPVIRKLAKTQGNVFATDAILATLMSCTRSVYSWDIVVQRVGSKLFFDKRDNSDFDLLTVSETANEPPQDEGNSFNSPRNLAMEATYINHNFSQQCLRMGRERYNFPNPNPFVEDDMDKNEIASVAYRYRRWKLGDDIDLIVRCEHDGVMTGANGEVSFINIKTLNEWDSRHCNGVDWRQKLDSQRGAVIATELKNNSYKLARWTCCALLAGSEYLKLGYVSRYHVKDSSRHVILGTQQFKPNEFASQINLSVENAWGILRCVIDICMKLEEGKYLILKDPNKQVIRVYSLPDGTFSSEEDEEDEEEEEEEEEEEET

Compound: CN[C@@H]1C[C@H]2O[C@@](C)([C@@H]1OC)n1c3ccccc3c3c4c(c5c6ccccc6n2c5c31)C(=O)NC4 [staurosporine]
Test: log2 fold change of tryptic peptide abundance, ligand vs vehicle (limited proteolysis) (log2 ratio); higher = more trypsin-susceptible (destabilized)
Conditions: ligand concentration: 20 uM; sample: mouse liver crude lysate; replicate design: treated separately

Row | Target | log2 fold change
1 | UniProt O35594 (peptide sequence: KMMRNEPIEGK, peptide start residue: 330) | 0.0835
2 | UniProt O88892 (peptide sequence: DSEIMQQK, peptide start residue: 40) | -0.0304
3 | UniProt O88327 (peptide sequence: QAGETIASLTDVTKR, peptide start residue: 108) | -0.139
4 | UniProt O35657 (peptide sequence: LIVCGHGTLER, peptide start residue: 209) | 0.372
5 | UniProt O54784 (peptide sequence: MTIAQSLEHSWIK, peptide start residue: 264) | -0.769
6 | UniProt O88822 (peptide sequence: IGGSFKHPSSFEGK, peptide start residue: 250) | 0.247
7 | UniProt O54750 (peptide sequence: GTMVLTNLTALHRDPK, peptide start residue: 397) | 0.273
8 | UniProt O88447 (peptide sequence: HLEFMNQLK, peptide start residue: 147) | 0.386
9 | UniProt O35929 (peptide sequence: THQANHVPIILVGNK, peptide start residue: 181) | 0.5
10 | UniProt O70310 (peptide sequence: LGEVVNTHGPVEPDKDNIR, peptide start residue: 128) | 0.379
11 | UniProt O35973 (peptide sequence: AVLSLHTQKEEQAFLNR, peptide start residue: 781) | 0.832
12 | UniProt O70493 (peptide sequence: IAGHPLAQNER, peptide start residue: 129) | -0.217
13 | UniProt O54749 (peptide sequence: LFVSHIVK, peptide start residue: 256) | 0.268
14 | UniProt O35732 (peptide sequence: NPHLVSDYR, peptide start residue: 91) | 0.35
15 | UniProt O70252 (peptide sequence: KCPFYAAQPDK, peptide start residue: 263) | 0.493
16 | UniProt O54992 (peptide sequence: LCDFGFAK, peptide start residue: 167) | -0.507
17 | UniProt O70309 (peptide sequence: ARYEMASNPLYR, peptide start residue: 764) | -0.221
18 | UniProt O54833 (peptide sequence: VYAEVNSLR, peptide start residue: 12) | 0.0133
19 | UniProt O54826 (peptide sequence: TCYICDEQGR, peptide start residue: 136) | -0.51
20 | UniProt O55142 (peptide sequence: AIFAGYKR, peptide start residue: 9) | 0.389

Row | Target | log2 fold change
21 | UniProt O88413 (peptide sequence: GSEEHTPLVDPQMPR, peptide start residue: 64) | 0.261
22 | UniProt O55128 (peptide sequence: VKEIGSTMSGR, peptide start residue: 103) | 0.152
23 | UniProt O70374 (peptide sequence: QHSPGSTDSLSNDSQR, peptide start residue: 398) | -0.605
24 | UniProt O55236 (peptide sequence: RKYPLDPDTELMPPPPPK, peptide start residue: 574) | -0.475
25 | UniProt O35685 (peptide sequence: LVTSDPEINTKK, peptide start residue: 258) | -0.676
26 | UniProt O88844 (peptide sequence: DIFQEIYDKK, peptide start residue: 225) | 0.162
27 | UniProt O70591 (peptide sequence: HNIRLMGEDEK, peptide start residue: 122) | 0.257
28 | UniProt O70404 (peptide sequence: NIMTQNVER, peptide start residue: 25) | -0.0613
29 | UniProt O88532 (peptide sequence: HATIYPTEEELQAVQK, peptide start residue: 731) | -0.687
30 | UniProt O35740 (peptide sequence: ADHMMAMNHGR, peptide start residue: 2) | -0.149
31 | UniProt O70494 (peptide sequence: VACTCPNCKEGGGR, peptide start residue: 600) | -0.258
32 | UniProt O70200 (peptide sequence: THLELKR, peptide start residue: 82) | -0.15
33 | UniProt O88543 (peptide sequence: CIELDER, peptide start residue: 383) | -0.314
34 | UniProt O35704 (peptide sequence: HNDVADLER, peptide start residue: 211) | 0.34
35 | UniProt O70279 (peptide sequence: HAWLYQAEEEFEKR, peptide start residue: 181) | -0.326
36 | UniProt O88322 (peptide sequence: DDQYVPQCDDLGHFIPLQCHGK, peptide start residue: 1064) | -0.191
37 | UniProt O70194 (peptide sequence: DMPYQPFSK, peptide start residue: 27) | 0.156
38 | UniProt O54879 (peptide sequence: STNPGISIGDVAK, peptide start residue: 113) | 0.135
39 | UniProt O35625 (peptide sequence: TAVLGGTASGHGK, peptide start residue: 501) | -0.386

Reprinted at random: 3 entries already listed
Row | Target | log2 fold change
23 | UniProt O70374 (peptide sequence: QHSPGSTDSLSNDSQR, peptide start residue: 398) | -0.605
34 | UniProt O35704 (peptide sequence: HNDVADLER, peptide start residue: 211) | 0.34
36 | UniProt O88322 (peptide sequence: DDQYVPQCDDLGHFIPLQCHGK, peptide start residue: 1064) | -0.191
